Results published in patent US6806286B2, “Pyrrolecarboxamides and pyrrolethioamides as fungicides” (Syngenta Crop Protection, Inc., priority 2000, dated 2004).
Some results were stated once for a whole list of compounds, not compound by compound.

Tested on: Puccinia recondita
Assay: Action against Puccinia recondita/wheat (brownrust on wheat)
Type: in vivo
Conditions: wheat plants cv. Arina, spray 0.02% active ingredient, inoculated one day after application, assessed 10 days after inoculation

SMILES: Cn1cc(C(=O)Nc2cnccc2-c2ccc(F)cc2)c(C2CC2)c1 [Compound 6.51]
- infestation (strong efficacy): < 20%

SMILES: Cc1cn(C)cc1C(=O)Nc1cnccc1-c1ccc(Cl)cc1 [Compound 6.10]
- infestation (strong efficacy): < 20%

SMILES: Cn1cc(C(=O)Nc2cnccc2-c2ccc(Cl)cc2)c(C2CC2)c1 [Compound 6.49]
- infestation (strong efficacy): < 20%

SMILES: Cc1cn(C)cc1C(=O)Nc1cnccc1-c1ccc(F)cc1 [Compound 6.12]
- infestation (strong efficacy): < 20%
